Values from PubChem BioAssay AID1671195 (Yale University, 2021).
Here is an unselected part of about 22,000 reagents tested. About 1,510 of all reagents (6.9%) were called active. 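Active includes knockdowns raising or lowering LDL uptake; positive z-scores mean more uptake, negative mean less.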

- Assay: 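Genes whose knockdown alters LDL uptake in liver cancer cells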 (primary screen)
- Cells: human Huh7 hepatoma cells
- Reagent: siRNA pool against human genes, 18 nM
- Time to read-out: about 2 to 2.5 days of knockdown, then 8 h LDL uptake
- Treatment: DiI-labelled LDL at 30 µg/ml for 8 h, in lipoprotein-deficient serum medium
- Detection: 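Per-cell DiI-LDL intensity by automated imaging; well means scaled to the plate median and given as a robust z-score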
- Direction: robust z-score: higher = more LDL uptake after knockdown
- Call rule: 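a gene counts as active if at least two replicate z-scores exceed ±2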

{"gene":"LINC01554 (long independently transcribed non-coding RNA 1554)","robust z-score, replicate 1":0.0968,"robust z-score, replicate 2":0.113,"robust z-score, replicate 3":0.163,"Outcome":"inactive"}
{"gene":"P2RY4 (pyrimidinergic receptor P2Y4)","robust z-score, replicate 1":0.0817,"robust z-score, replicate 2":0.186,"robust z-score, replicate 3":0.808,"Outcome":"inactive"}
{"gene":"CENPX (centromere protein X)","robust z-score, replicate 1":4.86,"robust z-score, replicate 2":3.22,"robust z-score, replicate 3":3,"Outcome":"active"}
{"gene":"GPR150 (G protein-coupled receptor 150)","robust z-score, replicate 1":0.969,"robust z-score, replicate 2":0.678,"robust z-score, replicate 3":1.38,"Outcome":"inactive"}
{"gene":"TOP2A (DNA topoisomerase II alpha)","robust z-score, replicate 1":2.28,"robust z-score, replicate 2":2.5,"robust z-score, replicate 3":1.41,"Outcome":"active"}
{"gene":"COPS8 (COP9 signalosome subunit 8)","robust z-score, replicate 1":4.67,"robust z-score, replicate 2":2.58,"robust z-score, replicate 3":4.51,"Outcome":"active"}
{"gene":"CFL1 (cofilin 1)","robust z-score, replicate 1":-1.01,"robust z-score, replicate 2":-1.27,"robust z-score, replicate 3":-1.29,"Outcome":"inactive"}
{"gene":"MBD5 (methyl-CpG binding domain protein 5)","robust z-score, replicate 1":0.281,"robust z-score, replicate 2":1.28,"robust z-score, replicate 3":1.7,"Outcome":"inactive"}
{"gene":"MRPL30 (mitochondrial ribosomal protein L30)","robust z-score, replicate 1":0.133,"robust z-score, replicate 2":-0.557,"robust z-score, replicate 3":0.419,"Outcome":"inactive"}
{"gene":"TXNL4A (thioredoxin like 4A)","robust z-score, replicate 1":2.23,"robust z-score, replicate 2":1.94,"robust z-score, replicate 3":2.28,"Outcome":"active"}
{"gene":"FAM81A (family with sequence similarity 81 member A)","robust z-score, replicate 1":0.476,"robust z-score, replicate 2":0.023,"robust z-score, replicate 3":1.39,"Outcome":"inactive"}
{"gene":"FAM78B (family with sequence similarity 78 member B)","robust z-score, replicate 1":-0.731,"robust z-score, replicate 2":-0.699,"robust z-score, replicate 3":-1.25,"Outcome":"inactive"}
{"gene":"RGL1 (ral guanine nucleotide dissociation stimulator like 1)","robust z-score, replicate 1":-0.292,"robust z-score, replicate 2":-0.229,"robust z-score, replicate 3":-0.153,"Outcome":"inactive"}
{"gene":"KIF9 (kinesin family member 9)","robust z-score, replicate 1":-0.503,"robust z-score, replicate 2":0.174,"robust z-score, replicate 3":0.275,"Outcome":"inactive"}
{"gene":"CYP2R1 (cytochrome P450 family 2 subfamily R member 1)","robust z-score, replicate 1":0.42,"robust z-score, replicate 2":0.777,"robust z-score, replicate 3":0.706,"Outcome":"inactive"}
{"gene":"CTBS (chitobiase)","robust z-score, replicate 1":-0.198,"robust z-score, replicate 2":-0.578,"robust z-score, replicate 3":-0.602,"Outcome":"inactive"}
